Test results as given in paper PMC2661564.
Results are given in words; binding and its absence hold for the method and conditions named. Tags and fused reporters may be left off the sequences shown.

Columns and labels:
[1] = biological target: SufI (FtsP), C-terminally hexahistidine-tagged (Escherichia coli) (UniProt P26648); test: crystal structure; sitting drops at 20 °C, 2.5 M NaCl, 100 mM imidazole pH 8.0; orthorhombic and monoclinic forms, each with two molecules in the asymmetric unit; interface analysed with the MSD-PISA server; both purified
[2] = biological target: SufI (FtsP), C-terminally hexahistidine-tagged (Escherichia coli) (UniProt P26648); test: SEC; Superdex-75 10-300 column, 20 mM Mops (pH 7.2), 200 mM NaCl; elution at an apparent molecular mass of approximately 55 kDa; both purified

B1: SufI (FtsP), C-terminally hexahistidine-tagged (protein, UniProt P26648 18-470)
chain: AGAVPLKASAAGQQQPLPVPPLLESRRGQPLFMTVQRAHWSFTPGTRASVWGINGRYLGPTIRVWKGDDVKLIYSNRLTENVSMTVAGLQVPGPLMGGPARMMSPNADWAPVLPIRQNAATLWYHANTPNRTAQQVYNGLAGMWLVEDEVSKSLPIPNHYGVDDFPVIIQDKRLDNFGTPEYNEPGSGGFVGDTLLVNGVQSPYVEVSRGWVRLRLLNASNSRRYQLQMNDGRPLHVISGDQGFLPAPVSVKQLSLAPGERREILVDMSNGDEVSITCGEAASIVDRIRGFFEPSSILVSTLVLTLRPTGLLPLVTDSLPMRLLPTEIMAGSPIRSRDISLGDDPGINGQLWDVNRIDVTAQQGTWERWTVRADEPQAFHIEGVMFQIRNVNGAMPFPEDRGWKDTVWVDGQVELLVYFGQPSWAHFPFYFNSQTLEMADRGSIGQLLVNPVP
binding [1]: no binding | binding [2]: no binding
